Test results as given in the supplement of paper PMC10849652.
This is one part of the list.

Protein sequences, listed by entry. Tags and fused reporters are not part of them. Lines headed by an entry give the natural chain unless they say otherwise; changes in a name come on top.
UniProt Q96GS6: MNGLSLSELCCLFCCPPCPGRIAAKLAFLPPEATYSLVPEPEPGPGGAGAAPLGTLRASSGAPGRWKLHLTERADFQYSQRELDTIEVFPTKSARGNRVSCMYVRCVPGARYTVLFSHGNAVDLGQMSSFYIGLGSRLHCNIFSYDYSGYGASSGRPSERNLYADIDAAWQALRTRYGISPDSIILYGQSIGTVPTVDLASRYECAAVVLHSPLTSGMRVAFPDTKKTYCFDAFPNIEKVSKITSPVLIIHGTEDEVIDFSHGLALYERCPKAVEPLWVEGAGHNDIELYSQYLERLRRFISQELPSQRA
UniProt Q9NUJ1: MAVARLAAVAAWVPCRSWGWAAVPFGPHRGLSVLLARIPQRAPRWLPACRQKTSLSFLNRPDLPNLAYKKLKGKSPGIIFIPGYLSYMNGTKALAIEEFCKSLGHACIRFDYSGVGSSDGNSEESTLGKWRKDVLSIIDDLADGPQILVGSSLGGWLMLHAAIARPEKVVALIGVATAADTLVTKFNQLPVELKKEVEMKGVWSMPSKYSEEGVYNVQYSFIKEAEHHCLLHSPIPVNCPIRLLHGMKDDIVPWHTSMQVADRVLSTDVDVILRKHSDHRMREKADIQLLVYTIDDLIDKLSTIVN
UniProt Q9NRN7: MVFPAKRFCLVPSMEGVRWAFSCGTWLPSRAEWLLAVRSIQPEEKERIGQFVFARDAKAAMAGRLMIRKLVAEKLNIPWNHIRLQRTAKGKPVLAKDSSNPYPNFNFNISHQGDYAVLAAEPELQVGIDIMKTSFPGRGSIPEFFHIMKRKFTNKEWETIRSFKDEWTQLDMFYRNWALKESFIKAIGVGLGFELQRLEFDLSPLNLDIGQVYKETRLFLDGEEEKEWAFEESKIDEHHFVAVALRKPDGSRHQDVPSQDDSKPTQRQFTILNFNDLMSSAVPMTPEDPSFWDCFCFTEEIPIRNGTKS

What was measured:
Assay in all cases: log2 fold change, soluble protein after heating vs DMSO (PISA); higher = thermal stabilisation; K562 lysate, 10 uM; active = over 0.2 and 3.5 SD of the protein, either way, in both replicates (recomputed)
lapatinib = compound: CS(=O)(=O)CCNCc1ccc(-c2ccc3ncnc(Nc4ccc(OCc5cccc(F)c5)c(Cl)c4)c3c2)o1 [lapatinib]
Procedure, shortened: (§1)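 Log-two fold change in thermal stability relative to solvent controls is reported from duplicates. For each sample, crude K562 extract from dounce-homogenised pellets in PBS pH 7.4 with 1 mM MgCl2, at 1 mg/mL protein, was treated with 10 μM compound for 30 min. Aliquots heated for 3 min across 48°C-58°C were pooled, brought to 0.5% NP-40 at 4°C and cleared at 21,000xg for 90 min. The supernatant was quantified by TMTpro 16plex LC-MS/MS with channel sums equalised.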

pictilisib = compound: CS(=O)(=O)N1CCN(Cc2cc3nc(-c4cccc5[nH]ncc45)nc(N4CCOCC4)c3s2)CC1 [pictilisib]
Procedure, shortened: as §1

crizotinib = compound: C[C@@H](Oc1cc(-c2cnn(C3CCNCC3)c2)cnc1N)c1c(Cl)ccc(F)c1Cl [crizotinib]
Procedure, shortened: as §1

[1] = compound: C[C@H](C1=CC=C(C=C1)C(=O)NC2=C3C=CNC3=NC=C2)N
Procedure, shortened: as §1

duvelisib = compound: C[C@H](Nc1ncnc2nc[nH]c12)c1cc2cccc(Cl)c2c(=O)n1-c1ccccc1 [duvelisib]
Procedure, shortened: as §1

gandotinib = compound: Cc1cc(Nc2cc(CN3CCOCC3)c3nc(C)c(Cc4ccc(Cl)cc4F)n3n2)n[nH]1 [gandotinib]
Procedure, shortened: as §1

tozasertib = compound: Cc1cc(Nc2cc(N3CCN(C)CC3)nc(Sc3ccc(NC(=O)C4CC4)cc3)n2)n[nH]1 [tozasertib]
Procedure, shortened: as §1

doramapimod = compound: Cc1ccc(-n2nc(C(C)(C)C)cc2NC(=O)Nc2ccc(OCCN3CCOCC3)c3ccccc23)cc1 [doramapimod]
Procedure, shortened: as §1

bafetinib = compound: Cc1ccc(NC(=O)c2ccc(CN3CC[C@H](N(C)C)C3)c(C(F)(F)F)c2)cc1Nc1nccc(-c2cncnc2)n1 [bafetinib]
Procedure, shortened: as §1

[2] = compound: Cc1cccc(CC(=O)N2CCc3c2ccc(-c2cn(C)c4ncnc(N)c24)c3F)n1
Procedure, shortened: as §1

nilotinib = compound: Cc1cn(-c2cc(NC(=O)c3ccc(C)c(Nc4nccc(-c5cccnc5)n4)c3)cc(C(F)(F)F)c2)cn1 [nilotinib]
Procedure, shortened: as §1

[3] = compound: Cc1nc(Nc2n[nH]c3c2CN(C(=O)N[C@H](CN(C)C)c2ccccc2)C3(C)C)c2sccc2n1
Procedure, shortened: as §1

dasatinib = compound: Cc1nc(Nc2ncc(C(=O)Nc3c(C)cccc3Cl)s2)cc(N2CCN(CCO)CC2)n1 [dasatinib]
Procedure, shortened: as §1

[4] = compound: Cc1ncc(-c2ccnc(Nc3ccc(S(C)(=O)=O)cc3)n2)n1C(C)C
Procedure, shortened: as §1

[5] = compound: Cn1cc(-c2ccc3c(c2)CCN3C(=O)Cc2cccc(C(F)(F)F)c2)c2c(N)ncnc21
Procedure, shortened: as §1

quisinostat = compound: Cn1cc(CNCC2CCN(c3ncc(C(=O)NO)cn3)CC2)c2ccccc21 [quisinostat]
Procedure, shortened: as §1

tipifarnib = compound: Cn1cncc1[C@@](N)(c1ccc(Cl)cc1)c1ccc2c(c1)c(-c1cccc(Cl)c1)cc(=O)n2C [tipifarnib]
Procedure, shortened: as §1

[6] = compound: NC(=O)Nc1cc(-c2cccc(F)c2)sc1C(=O)N[C@H]1CCCNC1
Procedure, shortened: as §1

[7] = compound: NC(=O)c1cnc(N[C@@H]2CCCC[C@@H]2N)nc1Nc1cccc(-n2nccn2)c1
Procedure, shortened: as §1

[8] = compound: NC1(c2ccc(-c3nc4ccn5c(=O)[nH]nc5c4cc3-c3ccccc3)cc2)CCC1
Procedure, shortened: as §1

Measured: log2 fold change

A0A0B4J2A0, A0A0B4J2A0
inactive: lapatinib 0.014 | pictilisib -0.017 | crizotinib -0.048 | [1] -0.01 | duvelisib 0.025 | gandotinib -0.065 | tozasertib -0.01 | doramapimod 0.009 | bafetinib -0.036 | [2] 0.046 | nilotinib 0.074 | [3] 0.011 | dasatinib -0.007 | [4] 0.007 | [5] -0.014 | quisinostat -0.015 | tipifarnib 0.008 | [6] -0.004 | [7] 0.019 | [8] -0.034

ABHD17A isoform 2 (UniProt Q96GS6)
inactive: lapatinib -0.034 | pictilisib -0.044 | crizotinib 0.017 | [1] -0.074 | duvelisib 0.01 | gandotinib 0.139 | tozasertib 0.019 | doramapimod 0.044 | bafetinib 0.019 | [2] 0.065 | nilotinib 0.062 | [3] 0.038 | dasatinib -0.141 | [4] 0.096 | [5] 0.017 | quisinostat -0.09 | tipifarnib 0.097 | [6] -0.007 | [7] 0.008 | [8] 0.007

ABHD10 (UniProt Q9NUJ1)
inactive: lapatinib 0.02 | pictilisib -0.002 | crizotinib 0.032 | [1] 0.046 | duvelisib -0.007 | gandotinib 0.008 | tozasertib 0.028 | doramapimod -0.063 | bafetinib -0.043 | [2] -0.035 | nilotinib -0.036 | [3] 0.018 | dasatinib 0.029 | [4] 0 | [5] -0.024 | quisinostat 0.065 | tipifarnib 0.02 | [6] 0 | [7] -0.031 | [8] 0.008

AASDHPPT (UniProt Q9NRN7)
inactive: lapatinib -0.006 | pictilisib -0.013 | crizotinib -0.01 | [1] -0.041 | duvelisib 0.01 | gandotinib 0.013 | tozasertib 0.012 | doramapimod -0.003 | bafetinib 0 | [2] 0.017 | nilotinib 0.004 | [3] -0.028 | dasatinib -0.014 | [4] -0.009 | [5] 0.023 | quisinostat -0.001 | tipifarnib 0.011 | [6] -0.01 | [7] -0.001 | [8] 0.016
